# Data from the supplement of paper PMC12595434, “Development of retinoid nuclear receptor pathway antagonists through targeting aldehyde dehydrogenase 1A3” (iScience, 2025).
# Chains of the proteins cited; added tags and fusions are not shown. Lines headed by an entry give the natural chain unless they say otherwise; changes in a name come on top.
# UniProt Q53HL2: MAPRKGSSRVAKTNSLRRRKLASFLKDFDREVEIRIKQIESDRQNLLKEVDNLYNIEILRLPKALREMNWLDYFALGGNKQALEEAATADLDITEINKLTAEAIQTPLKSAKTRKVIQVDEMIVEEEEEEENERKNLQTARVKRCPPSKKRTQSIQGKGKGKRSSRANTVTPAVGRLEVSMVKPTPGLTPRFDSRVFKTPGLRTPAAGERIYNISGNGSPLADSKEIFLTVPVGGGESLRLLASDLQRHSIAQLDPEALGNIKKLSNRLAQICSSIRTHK
# UniProt Q49A26: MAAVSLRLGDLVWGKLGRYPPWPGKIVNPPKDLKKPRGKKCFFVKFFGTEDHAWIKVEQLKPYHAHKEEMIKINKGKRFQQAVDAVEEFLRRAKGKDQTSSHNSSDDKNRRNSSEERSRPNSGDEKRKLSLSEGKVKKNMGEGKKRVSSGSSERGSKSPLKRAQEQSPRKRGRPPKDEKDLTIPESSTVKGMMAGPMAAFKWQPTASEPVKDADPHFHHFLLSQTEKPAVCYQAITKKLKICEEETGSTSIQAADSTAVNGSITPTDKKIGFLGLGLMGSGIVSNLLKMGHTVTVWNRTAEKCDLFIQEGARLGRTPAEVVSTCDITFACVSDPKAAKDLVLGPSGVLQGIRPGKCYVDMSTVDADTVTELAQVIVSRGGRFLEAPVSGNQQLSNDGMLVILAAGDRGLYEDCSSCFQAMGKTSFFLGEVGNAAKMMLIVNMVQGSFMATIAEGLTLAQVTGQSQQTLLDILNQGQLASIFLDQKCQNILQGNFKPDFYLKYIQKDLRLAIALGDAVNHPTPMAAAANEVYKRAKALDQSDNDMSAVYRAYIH
# UniProt Q16222: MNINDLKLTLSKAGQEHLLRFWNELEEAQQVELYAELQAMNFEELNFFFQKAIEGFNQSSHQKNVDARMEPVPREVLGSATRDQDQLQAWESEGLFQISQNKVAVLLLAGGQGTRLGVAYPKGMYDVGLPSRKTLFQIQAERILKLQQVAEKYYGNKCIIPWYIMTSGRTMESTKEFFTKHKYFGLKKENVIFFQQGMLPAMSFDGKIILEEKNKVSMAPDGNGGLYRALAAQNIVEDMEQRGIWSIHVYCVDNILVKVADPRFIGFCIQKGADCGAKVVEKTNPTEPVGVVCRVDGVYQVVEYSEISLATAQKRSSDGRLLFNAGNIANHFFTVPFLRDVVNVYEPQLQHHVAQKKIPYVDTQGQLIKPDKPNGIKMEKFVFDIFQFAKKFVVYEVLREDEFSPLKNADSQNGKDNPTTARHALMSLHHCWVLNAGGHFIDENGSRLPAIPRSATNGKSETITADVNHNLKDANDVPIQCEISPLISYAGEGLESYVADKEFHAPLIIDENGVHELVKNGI
# UniProt Q3KRA6: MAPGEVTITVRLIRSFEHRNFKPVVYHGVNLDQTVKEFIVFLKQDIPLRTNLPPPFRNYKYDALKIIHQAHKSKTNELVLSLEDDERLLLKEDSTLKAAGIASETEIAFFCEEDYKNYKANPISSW
# UniProt Q16576, whole entry: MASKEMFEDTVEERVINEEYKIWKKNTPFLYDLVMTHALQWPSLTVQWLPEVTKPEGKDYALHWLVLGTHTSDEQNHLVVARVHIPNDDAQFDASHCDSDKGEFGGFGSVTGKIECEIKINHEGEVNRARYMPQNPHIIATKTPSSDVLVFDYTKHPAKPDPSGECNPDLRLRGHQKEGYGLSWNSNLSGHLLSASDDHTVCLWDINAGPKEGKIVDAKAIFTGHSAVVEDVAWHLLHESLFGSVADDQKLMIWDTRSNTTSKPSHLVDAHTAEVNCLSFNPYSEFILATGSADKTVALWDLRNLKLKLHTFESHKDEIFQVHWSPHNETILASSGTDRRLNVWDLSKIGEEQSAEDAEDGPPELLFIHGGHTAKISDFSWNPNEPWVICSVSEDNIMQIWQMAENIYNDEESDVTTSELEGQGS
# UniProt Q15572: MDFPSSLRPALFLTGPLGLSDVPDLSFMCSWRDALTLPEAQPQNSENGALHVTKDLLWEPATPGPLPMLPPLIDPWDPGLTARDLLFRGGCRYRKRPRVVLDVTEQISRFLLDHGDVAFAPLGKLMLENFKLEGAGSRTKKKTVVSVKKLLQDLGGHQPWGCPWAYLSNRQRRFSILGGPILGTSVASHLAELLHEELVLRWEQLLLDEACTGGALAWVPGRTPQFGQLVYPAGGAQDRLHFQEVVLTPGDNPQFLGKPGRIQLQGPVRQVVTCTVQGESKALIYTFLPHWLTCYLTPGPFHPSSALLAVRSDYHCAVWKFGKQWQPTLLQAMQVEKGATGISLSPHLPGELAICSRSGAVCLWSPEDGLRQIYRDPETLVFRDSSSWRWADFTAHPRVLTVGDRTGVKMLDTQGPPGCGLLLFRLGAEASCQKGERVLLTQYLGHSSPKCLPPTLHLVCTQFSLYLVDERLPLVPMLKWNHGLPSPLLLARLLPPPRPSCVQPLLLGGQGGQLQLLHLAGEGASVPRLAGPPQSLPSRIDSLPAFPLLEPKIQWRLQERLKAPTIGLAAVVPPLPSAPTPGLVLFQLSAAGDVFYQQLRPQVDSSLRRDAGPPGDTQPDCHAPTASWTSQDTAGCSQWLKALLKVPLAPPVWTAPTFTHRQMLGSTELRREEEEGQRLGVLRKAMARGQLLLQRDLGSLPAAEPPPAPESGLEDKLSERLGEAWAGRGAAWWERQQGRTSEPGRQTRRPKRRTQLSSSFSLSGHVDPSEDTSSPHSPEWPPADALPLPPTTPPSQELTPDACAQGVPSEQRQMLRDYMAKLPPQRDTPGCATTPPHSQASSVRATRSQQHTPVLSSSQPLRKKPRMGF
# UniProt Q3T8J9: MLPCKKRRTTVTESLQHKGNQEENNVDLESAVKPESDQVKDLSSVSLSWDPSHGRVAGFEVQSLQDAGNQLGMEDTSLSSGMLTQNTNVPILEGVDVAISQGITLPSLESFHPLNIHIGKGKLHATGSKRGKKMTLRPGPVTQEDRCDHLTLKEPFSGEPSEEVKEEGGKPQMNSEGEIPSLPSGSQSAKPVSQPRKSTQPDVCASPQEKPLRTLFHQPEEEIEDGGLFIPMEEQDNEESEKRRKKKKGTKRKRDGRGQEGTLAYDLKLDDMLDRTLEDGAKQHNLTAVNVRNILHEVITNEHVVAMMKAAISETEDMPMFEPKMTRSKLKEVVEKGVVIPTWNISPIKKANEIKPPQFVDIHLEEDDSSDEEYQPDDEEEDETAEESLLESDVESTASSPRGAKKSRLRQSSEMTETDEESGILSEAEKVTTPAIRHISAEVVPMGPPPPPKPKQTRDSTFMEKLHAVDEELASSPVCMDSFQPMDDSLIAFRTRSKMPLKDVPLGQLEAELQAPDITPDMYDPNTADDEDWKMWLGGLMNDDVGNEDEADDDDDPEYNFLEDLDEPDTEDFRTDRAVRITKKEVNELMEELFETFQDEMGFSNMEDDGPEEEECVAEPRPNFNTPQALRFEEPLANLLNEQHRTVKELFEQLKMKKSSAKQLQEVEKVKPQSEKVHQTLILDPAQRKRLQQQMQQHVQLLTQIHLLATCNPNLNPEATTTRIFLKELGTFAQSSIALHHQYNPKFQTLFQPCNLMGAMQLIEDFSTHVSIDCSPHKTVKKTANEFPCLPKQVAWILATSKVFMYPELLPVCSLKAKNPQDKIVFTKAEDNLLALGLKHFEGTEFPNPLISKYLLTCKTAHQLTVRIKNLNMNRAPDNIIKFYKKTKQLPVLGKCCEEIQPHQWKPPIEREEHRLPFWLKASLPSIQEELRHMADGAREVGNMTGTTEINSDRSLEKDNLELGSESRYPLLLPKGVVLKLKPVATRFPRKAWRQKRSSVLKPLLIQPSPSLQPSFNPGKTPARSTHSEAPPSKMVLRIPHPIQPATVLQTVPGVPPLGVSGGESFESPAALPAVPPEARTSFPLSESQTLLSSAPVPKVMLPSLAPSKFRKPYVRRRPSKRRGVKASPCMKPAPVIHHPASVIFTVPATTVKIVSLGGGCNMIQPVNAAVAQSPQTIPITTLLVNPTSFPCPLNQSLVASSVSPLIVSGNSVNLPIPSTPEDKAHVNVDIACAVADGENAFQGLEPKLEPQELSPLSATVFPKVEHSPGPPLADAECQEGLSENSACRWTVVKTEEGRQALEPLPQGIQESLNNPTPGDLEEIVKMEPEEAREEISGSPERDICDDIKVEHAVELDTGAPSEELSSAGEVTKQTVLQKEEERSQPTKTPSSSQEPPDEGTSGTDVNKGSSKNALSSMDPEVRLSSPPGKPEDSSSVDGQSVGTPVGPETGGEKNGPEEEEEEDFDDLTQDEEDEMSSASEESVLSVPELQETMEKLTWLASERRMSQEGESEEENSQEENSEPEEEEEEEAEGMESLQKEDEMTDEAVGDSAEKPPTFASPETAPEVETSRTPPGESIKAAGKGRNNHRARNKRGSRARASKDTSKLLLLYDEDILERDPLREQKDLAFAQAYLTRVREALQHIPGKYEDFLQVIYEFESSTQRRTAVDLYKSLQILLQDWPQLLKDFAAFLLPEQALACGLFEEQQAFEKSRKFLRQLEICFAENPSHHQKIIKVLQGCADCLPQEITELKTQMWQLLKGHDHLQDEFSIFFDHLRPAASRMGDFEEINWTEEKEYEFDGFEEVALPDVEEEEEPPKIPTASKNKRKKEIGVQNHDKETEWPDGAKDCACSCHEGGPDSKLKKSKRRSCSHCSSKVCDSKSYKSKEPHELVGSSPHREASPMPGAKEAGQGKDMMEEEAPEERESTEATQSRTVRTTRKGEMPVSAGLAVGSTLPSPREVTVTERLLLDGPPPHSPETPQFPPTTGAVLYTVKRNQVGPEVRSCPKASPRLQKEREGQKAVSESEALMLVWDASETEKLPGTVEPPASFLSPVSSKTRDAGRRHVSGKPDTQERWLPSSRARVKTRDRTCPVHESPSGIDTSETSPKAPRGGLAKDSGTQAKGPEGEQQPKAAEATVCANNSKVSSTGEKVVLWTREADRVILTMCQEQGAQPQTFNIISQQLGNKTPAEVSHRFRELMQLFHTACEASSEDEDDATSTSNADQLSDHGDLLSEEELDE
# UniProt Q15788: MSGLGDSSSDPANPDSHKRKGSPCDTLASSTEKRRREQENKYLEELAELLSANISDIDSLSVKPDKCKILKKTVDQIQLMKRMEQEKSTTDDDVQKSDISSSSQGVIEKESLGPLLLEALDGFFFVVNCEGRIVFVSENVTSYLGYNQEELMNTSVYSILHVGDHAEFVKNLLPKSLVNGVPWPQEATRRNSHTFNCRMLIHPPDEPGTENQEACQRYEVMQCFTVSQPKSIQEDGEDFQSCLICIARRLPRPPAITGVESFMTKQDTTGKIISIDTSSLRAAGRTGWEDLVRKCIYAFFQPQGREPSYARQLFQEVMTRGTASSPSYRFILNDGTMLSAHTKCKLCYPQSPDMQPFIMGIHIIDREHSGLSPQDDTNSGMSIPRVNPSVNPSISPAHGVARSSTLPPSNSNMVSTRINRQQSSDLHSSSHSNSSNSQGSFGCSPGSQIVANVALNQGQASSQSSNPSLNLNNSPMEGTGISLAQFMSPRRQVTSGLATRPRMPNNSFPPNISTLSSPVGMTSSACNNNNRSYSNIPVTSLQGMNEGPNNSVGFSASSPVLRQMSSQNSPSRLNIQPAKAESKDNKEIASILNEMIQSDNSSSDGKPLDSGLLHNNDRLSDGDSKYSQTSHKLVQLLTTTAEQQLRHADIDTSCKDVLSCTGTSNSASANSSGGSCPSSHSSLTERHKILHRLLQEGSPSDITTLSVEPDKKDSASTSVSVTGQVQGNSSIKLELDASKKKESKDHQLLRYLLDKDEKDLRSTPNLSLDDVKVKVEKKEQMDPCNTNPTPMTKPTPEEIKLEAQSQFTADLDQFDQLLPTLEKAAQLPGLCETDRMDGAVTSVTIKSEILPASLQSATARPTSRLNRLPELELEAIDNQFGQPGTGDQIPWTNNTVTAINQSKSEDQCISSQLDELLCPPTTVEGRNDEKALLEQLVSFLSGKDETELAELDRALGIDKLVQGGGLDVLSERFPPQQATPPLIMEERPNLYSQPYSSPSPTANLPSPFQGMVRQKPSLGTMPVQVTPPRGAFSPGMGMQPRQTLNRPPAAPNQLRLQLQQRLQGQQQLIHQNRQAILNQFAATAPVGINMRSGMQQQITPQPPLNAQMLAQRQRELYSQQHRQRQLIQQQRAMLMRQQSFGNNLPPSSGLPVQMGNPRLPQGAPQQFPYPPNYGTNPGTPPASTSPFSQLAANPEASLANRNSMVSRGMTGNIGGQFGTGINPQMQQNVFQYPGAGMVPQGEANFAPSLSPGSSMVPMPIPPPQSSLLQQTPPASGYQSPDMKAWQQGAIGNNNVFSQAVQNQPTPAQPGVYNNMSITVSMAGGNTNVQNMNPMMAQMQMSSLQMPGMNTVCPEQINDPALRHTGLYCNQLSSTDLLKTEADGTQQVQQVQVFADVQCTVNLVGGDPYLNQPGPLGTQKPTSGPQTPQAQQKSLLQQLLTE
# Some of the results follow. Single values of this set are uncertain.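 Tm was set to 64 °C where no melting was found, and many curves are irregular.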
# Compound: CCc1cnccc1C(=O)Nc1cc2c(cc1F)NC(=O)CC2
# Experiment: melting temperature shift (DMSO Tm minus MBE1-treated Tm) in cellular thermal proteome profiling; higher = less thermal stabilization by MBE1 (negative = stabilized by MBE1)
# Settings: A375; MBE1 concentration: 100 nM
row,Target,melting temperature shift [°C]
1,UniProt Q53HL2,1.39
2,NDUFA9 (UniProt Q16795),0.812
3,RAB35 (UniProt Q15286),-0.892
4,RPS6KA2 (UniProt Q15349),0.66
5,UniProt Q53ET0,-1.32
6,GLYR1 (UniProt Q49A26),-0.449
7,DPY19L1 (UniProt Q2PZI1),-0.369
8,UAP1 (UniProt Q16222),-0.972
9,UniProt Q3KRA6,1.13
10,TRIP11 (UniProt Q15643),-1.52
11,ALDH1L2 (UniProt Q3SY69),1.57
12,UniProt Q15147,-0.263
13,BRD3 (UniProt Q15059),-0.87
14,PPA1 (UniProt Q15181),-0.733
15,GUK1 (UniProt Q16774),-0.047
16,UniProt Q2VIQ3,0.359
17,RBBP7 (UniProt Q16576),-1.88
18,FUT11 (UniProt Q495W5),-0.785
19,UniProt Q53GG5,-3.3

row,Target,melting temperature shift [°C]
1,UniProt Q15572,-2.41
2,MAP7D1 (UniProt Q3KQU3),-0.49
3,UniProt Q4AC94,-0.382
4,PTGES3 (UniProt Q15185),0.894
5,JMJD1C (UniProt Q15652),0.476
6,LSM12 (UniProt Q3MHD2),-0.919
7,UniProt Q3MII6,0.278
8,SLC25A35 (UniProt Q3KQZ1),-0.275
9,UniProt Q3T8J9,-5.35
10,UniProt Q562R1,-2.21
11,UniProt Q15678,-0.306
12,PMVK (UniProt Q15126),0.333
13,UniProt Q15788,0.238
14,LACTB2 (UniProt Q53H82),-4.13
15,UniProt Q2YD98,-1.41
16,SETMAR (UniProt Q53H47),-1.41
17,ACOX1 (UniProt Q15067),-1.56
18,PFKFB3 (UniProt Q16875),-0.667

# Same assay, conditions: A375; MBE1 concentration: 1 uM
row,Target,melting temperature shift [°C]
1,UniProt Q53HL2,3.95
2,NDUFA9 (UniProt Q16795),0.409
3,RAB35 (UniProt Q15286),-1.97
4,RPS6KA2 (UniProt Q15349),-0.55
5,UniProt Q53ET0,-1.84
6,GLYR1 (UniProt Q49A26),-0.182
7,DPY19L1 (UniProt Q2PZI1),-0.0335
8,UAP1 (UniProt Q16222),0.671
9,UniProt Q3KRA6,0.122
10,TRIP11 (UniProt Q15643),-0.946
11,ALDH1L2 (UniProt Q3SY69),0.91
12,UniProt Q15147,0.769
13,BRD3 (UniProt Q15059),-0.861
14,PPA1 (UniProt Q15181),1.3
15,GUK1 (UniProt Q16774),0.165
16,UniProt Q2VIQ3,-1.01
17,RBBP7 (UniProt Q16576),-1.19
18,FUT11 (UniProt Q495W5),1.22
19,UniProt Q53GG5,-1.64

row,Target,melting temperature shift [°C]
1,UniProt Q15572,-0.468
2,MAP7D1 (UniProt Q3KQU3),0.488
3,UniProt Q4AC94,1
4,PTGES3 (UniProt Q15185),-0.342
5,JMJD1C (UniProt Q15652),0.25
6,LSM12 (UniProt Q3MHD2),-0.832
7,UniProt Q3MII6,0.108
8,SLC25A35 (UniProt Q3KQZ1),-0.861
9,UniProt Q3T8J9,0.628
10,UniProt Q562R1,-0.313
11,UniProt Q15678,-0.419
12,PMVK (UniProt Q15126),-0.0769
13,UniProt Q15788,3.52
14,LACTB2 (UniProt Q53H82),-4.83
15,UniProt Q2YD98,-0.724
16,SETMAR (UniProt Q53H47),0.933
17,ACOX1 (UniProt Q15067),2.4
18,PFKFB3 (UniProt Q16875),0.0488
